Data source: PubChem BioAssay AID504784 (Drosophila RNAi Screening Center, 2011)

- Purpose: 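Fly genes whose silencing alters how much lipid cells keep in droplets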 (primary screen)
- Cell system: Drosophila Kc167 embryonic cells
- Knock-down reagent: long dsRNA against Drosophila genes, about 250 ng dsRNA per well
- Time to read-out: 4 days
- Conditions: cells fed 400 µM oleic acid bound to BSA
- Measured: 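Microscope images give a droplet-to-nucleus area ratio, taken as log and converted to a screen-wide B-score; higher values mean greater lipid storage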
- Scale: droplet/nuclear area B-score: higher = more stored lipid (overstorage)
The screen tested about 17,000 reagents; shown is a random part of those with a known target gene and a result. 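Each column is one replicate's B-score; the combined score over replicates was not deposited, so single values may mislead.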 Names joined by + are all predicted targets of the reagent.

The opening 4 records, to show the layout:
| Gene | DRSC id | droplet/nuclear area B-score, replicate 1 | droplet/nuclear area B-score, replicate 2 | droplet/nuclear area B-score, replicate 3 |
| --- | --- | --- | --- | --- |
| CG13065 | DRSC09948 | 0.335 | 2.12 | – |
| GlcAT-I | DRSC17307 | -0.922 | -0.0508 | – |
| Hexo2 | DRSC18671 | 0.681 | 0.494 | – |
| Nmdmc | DRSC16760 | 0.114 | -0.824 | – |

The list itself, repeating the preview:
| Gene | DRSC id | droplet/nuclear area B-score, replicate 1 | droplet/nuclear area B-score, replicate 2 | droplet/nuclear area B-score, replicate 3 |
| --- | --- | --- | --- | --- |
| CG13065 | DRSC09948 | 0.335 | 2.12 | – |
| GlcAT-I | DRSC17307 | -0.922 | -0.0508 | – |
| Hexo2 | DRSC18671 | 0.681 | 0.494 | – |
| Nmdmc | DRSC16760 | 0.114 | -0.824 | – |
| Ythdf | DRSC16036 | -1.9 | -0.704 | – |
| Ythdf | DRSC16037 | 0.21 | 0.459 | – |
| CG12699 | DRSC06162 | -0.526 | -0.817 | – |
| CG12655 | DRSC20678 | 0.96 | -0.313 | – |
| Rpp30 | DRSC00320 | -1.88 | -1.89 | – |
| CG13312 | DRSC09983 | -1.6 | -1.5 | – |
| CG14882 | DRSC15006 | 0.00474 | 1.27 | – |
| CaBP1 | DRSC01984 | 2.04 | -0.623 | – |
| beat-Vb | DRSC12940 | 2.09 | 0.759 | – |
| beat-Vb | DRSC14844 | 0.00721 | -0.279 | – |
| beat-Vb | DRSC14845 | 0.0473 | -0.452 | – |
| Pex6 + Hao | DRSC06097 | -0.859 | -0.743 | – |
| Pex6 + Hao | DRSC06704 | 0.956 | 0.541 | – |
| CG31883 | DRSC02561 | 0.48 | 0.272 | – |
| CG14253 | DRSC14748 | 0.627 | -0.523 | – |
| CG15764 | DRSC18070 | 0.0472 | -0.759 | – |
| MFS16 | DRSC04051 | -1.46 | 0.894 | – |
| CG13737 | DRSC10064 | 0.0698 | 1.51 | – |
| CG11178 | DRSC19396 | -1.45 | -0.0029 | -1.67 |
| Ent1 | DRSC00330 | -0.716 | 0.811 | – |
| CG13380 + CG4174 | DRSC09988 | 1.08 | -0.482 | -1.76 |
| CG13380 + CG4174 | DRSC10406 | -0.675 | 2.68 | – |
| CycB3 | DRSC16618 | -1.74 | 0.244 | – |
| CG13031 | DRSC09911 | -1.07 | -1.14 | – |
| Ada2b | DRSC16531 | -0.539 | 0.747 | – |
| tomboy40 | DRSC04918 | 0.0232 | 0.00794 | – |
| NK7.1 | DRSC16755 | 2.66 | 0.438 | – |
| RpS28b | DRSC18258 | 4.39 | -0.629 | 0.776 |
| Srp72 | DRSC15800 | – | -0.756 | – |
| Sema2b | DRSC05609 | -0.809 | -0.602 | – |
| Sema2b | DRSC06867 | -0.24 | -1.46 | – |
| CG31373 | DRSC16052 | -0.907 | 0.485 | – |
| CG15211 | DRSC19657 | 0.0271 | -0.838 | -0.00928 |
| CG6790 | DRSC16117 | 6.21 | 0.263 | – |
| RfC3 | DRSC03411 | -0.209 | 0.00637 | – |
| Pop5 | DRSC10074 | -0.0509 | 1.38 | – |
| CG15905 | DRSC06591 | 0.234 | -0.0384 | – |
| CG9175 | DRSC03153 | 1.41 | 2.21 | – |
| CNT1 | DRSC06082 | -0.218 | -0.359 | – |
| RnpS1 | DRSC15154 | -0.0949 | -0.621 | – |
| casp | DRSC07164 | -0.595 | 0.516 | – |
| CG9386 | DRSC16485 | 5.56 | -0.121 | – |
| CG18249 | DRSC15318 | -2.97 | -0.00171 | – |
| Boh1 | DRSC14487 | -1.01 | 0.344 | – |
| Cyp6a16Psi (retired record) | DRSC03307 | 2.15 | -0.547 | – |
| alpha-Man-Ia | DRSC17642 | 1.67 | 0.709 | – |
| alpha-Man-Ia | DRSC18162 | -1.96 | -1.23 | -0.734 |
| alpha-Man-Ia | DRSC18163 | -2.49 | -1.66 | -1.48 |
| alpha-Man-Ia | DRSC18735 | 1.1 | 0.256 | 5.11 |
| alpha-Man-Ia | DRSC23100 | -2.26 | 0.956 | – |
| CG3402 | DRSC08567 | 1.29 | -1.68 | – |
| CG33475 | DRSC22943 | -2.08 | -0.779 | – |
| 5-HT7 | DRSC12635 | -0.202 | – | – |
| CG5171 | DRSC02823 | 0.0485 | -0.00891 | – |
| Sgs1 | DRSC00787 | 1.09 | 0.768 | – |
| CG4218 | DRSC01939 | 0.242 | 0.648 | – |
| CysRS-m | DRSC07129 | -0.807 | 3.08 | – |
| lncRNA:CR30009 | DRSC22952 | 1.13 | -0.954 | – |
| His2Av | DRSC16702 | 0.715 | – | – |
| CG2991 | DRSC00559 | 0.296 | 0.0728 | – |
| IFT57 | DRSC00720 | -1.08 | 1.6 | – |
| CG2926 | DRSC12321 | 0.163 | -1.37 | – |
| wrm1 | DRSC11007 | 3.18 | 0.695 | – |
| Ilp8 | DRSC10076 | 1.68 | -0.643 | – |
| Obp46a | DRSC06220 | -0.832 | -0.0859 | – |
| CG13056 | DRSC09937 | 1.1 | -0.000943 | – |
| CG7457 | DRSC10849 | 1.17 | 0.647 | – |
| CG14459 | DRSC11719 | -1.5 | -3.95 | – |
| CG14459 | DRSC23039 | -0.779 | 1.05 | – |
| Srg2 + CG42826 | DRSC10681 | 4.43 | -0.296 | – |
| Srg2 + CG42826 | DRSC10682 | 0.0993 | 1.03 | – |
| sqa | DRSC06693 | 0.263 | 1.54 | – |
| sqa | DRSC21635 | -0.755 | 0.357 | – |
| AnxB9 | DRSC14111 | -0.693 | -4.24 | – |
| CG14683 | DRSC17035 | -0.164 | -0.332 | – |
| Gnmt | DRSC15987 | 3.18 | 2.94 | – |
| CG8543 | DRSC10990 | 0.398 | 0.331 | – |
| CG8543 | DRSC22809 | 0.757 | -0.00956 | – |
| CG30291 | DRSC03842 | -1.84 | -1.34 | – |
